Laboratory results: PubChem BioAssay AID743121 (NCATS, 2013)

Assay: 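Knock-downs that sensitise breast cancer cells to camptothecin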 (primary screen)
System: MDA-MB-231 cells, a human breast cancer line
Knock-down reagent: single siRNA against human genes, 20 nM siRNA (0.8 pmol per well)
Duration: 120 h (drug added 48 h after transfection, read 72 h later)
Treatment: camptothecin 20 nM (about EC30) for 72 h; vehicle 0.1% DMSO in parallel plates
Measurement: 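CellTiter-Glo ATP signal, scaled to control siRNA as percent viability; sensitisation given as log2 of untreated divided by camptothecin-treated viability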
Direction: log2 vehicle/camptothecin viability: higher = stronger sensitisation to camptothecin; viability with camptothecin and viability without drug: higher = more viable cells
Active means: 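Each gene scored by redundant siRNA activity (RSA) over its individual siRNA ratios; a gene is called active at p < 0.001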
The deposit covers about 26,000 reagents; shown is a random part of them. Of all reagents, 167 (0.63%) got an active call. 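Calls are per gene from RSA p-values that are not deposited; an individual active-marked siRNA can sensitise only weakly.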 Reagents against one gene are numbered here.

| target | siRNA no. | log2 vehicle/camptothecin viability | viability with camptothecin (% of control) | viability without drug (% of control) | outcome |
| --- | --- | --- | --- | --- | --- |
| NEDD4 (NEDD4 E3 ubiquitin protein ligase) | 1 | 0.12 | 33.8 | 36.8 | inactive |
| NEDD4 (NEDD4 E3 ubiquitin protein ligase) | 2 | 0.22 | 67.1 | 78.2 | inactive |
| NEDD4 (NEDD4 E3 ubiquitin protein ligase) | 3 | -0.119 | 118 | 109 | inactive |
| NEDD4 (NEDD4 E3 ubiquitin protein ligase) | 4 | 0.344 | 75.5 | 95.9 | inactive |
| CDK17 (cyclin dependent kinase 17) | 1 | -0.000476 | 77.9 | 77.9 | inactive |
| CDK17 (cyclin dependent kinase 17) | 2 | -0.519 | 117 | 81.5 | inactive |
| CDK17 (cyclin dependent kinase 17) | 3 | 0.309 | 71.3 | 88.4 | inactive |
| CDK17 (cyclin dependent kinase 17) | 4 | -0.114 | 45.7 | 42.3 | inactive |
| TMEM86B (transmembrane protein 86B) | 1 | -0.349 | 93.4 | 73.3 | inactive |
| TMEM86B (transmembrane protein 86B) | 2 | -0.175 | 33.3 | 29.5 | inactive |
| TMEM86B (transmembrane protein 86B) | 3 | -0.106 | 62.7 | 58.3 | inactive |
| TMEM86B (transmembrane protein 86B) | 4 | -0.103 | 109 | 102 | inactive |

The list goes on (2 carried over from the part before).
| target | siRNA no. | log2 vehicle/camptothecin viability | viability with camptothecin (% of control) | viability without drug (% of control) | outcome |
| --- | --- | --- | --- | --- | --- |
| TMEM86B (transmembrane protein 86B) | 3 | -0.106 | 62.7 | 58.3 | inactive |
| TMEM86B (transmembrane protein 86B) | 4 | -0.103 | 109 | 102 | inactive |
| GPR21 (G protein-coupled receptor 21) | 1 | 0.158 | 87.2 | 97.3 | inactive |
| GPR21 (G protein-coupled receptor 21) | 2 | -0.177 | 96.1 | 85 | inactive |
| GPR21 (G protein-coupled receptor 21) | 3 | -0.0292 | 81.2 | 79.6 | inactive |
| GPR21 (G protein-coupled receptor 21) | 4 | 0.121 | 60.6 | 65.9 | inactive |
| ACP2 (acid phosphatase 2, lysosomal) | 1 | -0.0505 | 73.9 | 71.4 | inactive |
| ACP2 (acid phosphatase 2, lysosomal) | 2 | -0.379 | 84.2 | 64.8 | inactive |
| ACP2 (acid phosphatase 2, lysosomal) | 3 | -0.434 | 99 | 73.3 | inactive |
| ACP2 (acid phosphatase 2, lysosomal) | 4 | -0.142 | 71.1 | 64.4 | inactive |
| DCBLD2 (discoidin, CUB and LCCL domain containing 2) | 1 | -0.34 | 80.1 | 63.3 | inactive |
| DCBLD2 (discoidin, CUB and LCCL domain containing 2) | 2 | -0.169 | 73.6 | 65.5 | inactive |
| DCBLD2 (discoidin, CUB and LCCL domain containing 2) | 3 | -0.0199 | 80.3 | 79.2 | inactive |
| DCBLD2 (discoidin, CUB and LCCL domain containing 2) | 4 | -0.0693 | 48.7 | 46.4 | inactive |
| RBFOX2 (RNA binding fox-1 homolog 2) | 1 | -0.202 | 101 | 87.5 | inactive |
| RBFOX2 (RNA binding fox-1 homolog 2) | 2 | 0.00631 | 82.6 | 83 | inactive |
| RBFOX2 (RNA binding fox-1 homolog 2) | 3 | -0.213 | 122 | 105 | inactive |
| RBFOX2 (RNA binding fox-1 homolog 2) | 4 | 0.711 | 30.4 | 49.7 | inactive |
